# Test results as given in patent US20250145733A1 (University of California, published 2025).
# The chains behind the UniProt entries cited, without tags or fusion partners. Residues count along the entry.
# UniProt P10696, residues 20-503: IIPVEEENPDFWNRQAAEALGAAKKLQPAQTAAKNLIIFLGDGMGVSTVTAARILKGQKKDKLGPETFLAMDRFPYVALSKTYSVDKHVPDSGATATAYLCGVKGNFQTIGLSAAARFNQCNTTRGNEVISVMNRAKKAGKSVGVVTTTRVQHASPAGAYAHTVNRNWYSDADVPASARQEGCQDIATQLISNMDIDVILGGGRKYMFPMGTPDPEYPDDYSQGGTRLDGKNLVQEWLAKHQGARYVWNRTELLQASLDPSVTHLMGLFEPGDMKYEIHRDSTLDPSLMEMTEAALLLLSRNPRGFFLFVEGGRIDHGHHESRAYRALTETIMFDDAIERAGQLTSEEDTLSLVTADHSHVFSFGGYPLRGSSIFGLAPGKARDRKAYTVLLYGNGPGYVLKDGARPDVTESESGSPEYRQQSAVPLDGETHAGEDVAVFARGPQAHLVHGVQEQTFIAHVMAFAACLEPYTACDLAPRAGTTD
# No constants are given. Whether binding was seen depends on the method and setting. Some results given as binding are weak or reduced against the parent protein; the word gives no strength.
# Target: human ALPPL2 on tumor cells (M28, SKOV3, AsPC1) (human) (UniProt P10696)
# Experiment: flow cytometry on living M28 cells, 1 h at RT
row,binding,Binder
1,binds,"FYIA_germ Fab (Fab, V domains shown, Tested as monovalent Fab) VH: EVQLVESGGGLVQPGGSLRLSCAASGFTFSSYAMHWVRQAPGKGLEWVAVISYDGSNKYYADSVKGRFTISRDNSKNTLYLQMNSLRAEDTAVYYCAKEGDSSRWSYDLWGRGTLVTVSS VL: QSALTQPASVSGSPGQSITISCTGTSSDVGGYNYVSWYQQHPGKAPKLMIYDVTNRPSGVSNRFSGSKSGNTASLTISGLQAEDEADYYCSSYTIASTLVVFGGGTKLTVL"
2,binds,"FYIA_germopt Fab (Fab, V domains shown, Tested as monovalent Fab; also called SYLY) VH: EVQLVESGGGLVQPGGSLRLSCAASGFTFSAYAMHWVRQAPGKGLEWVAVISYEGYNAYYADSVKGRFTISRDNSKNTLYLQMNSLRAEDTAVYYCAKEGDYSRWAYDYWGRGTLVTVSS VL: QSALTQPASVSGSPGQSITISCTGTSSDVGGYNYVSWYQQHPGKAPKLMIYDVTNYPSGVSNRFSGSKSGNTASLTISGLQAEDEADYYCSSYTVATTLVVFGGGTKLTVL"
